Laboratory results published in patent US20100291023A1.
These are yes or no findings as the source states them, for the method shown. Some results given as binding are weak or reduced against the parent protein; the word gives no strength.

T1: Bet v 1 (birch) (UniProt P15494)
T1 sequence (125I label (chloramine-T method) on the radiolabelled form, looked up): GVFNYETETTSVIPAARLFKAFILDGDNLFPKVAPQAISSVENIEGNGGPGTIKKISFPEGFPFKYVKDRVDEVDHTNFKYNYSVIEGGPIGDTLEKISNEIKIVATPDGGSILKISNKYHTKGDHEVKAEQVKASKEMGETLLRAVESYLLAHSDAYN


Tests used:
Bet v 1 (birch) [1] = molecular target: T1, Bet v 1 (birch); assay: radio immuno assay: 125I-labelled Bet v 1 bound to antibody on Protein G Sepharose
Bet v 1 (birch) [2] = molecular target: T1, Bet v 1 (birch); assay: crosslinking radio immuno assay: Bet v 1 Sepharose, antibody, 125I-labelled Bet v 1
Bet v 1 (birch) [3] = molecular target: T1, Bet v 1 (birch); assay: radio immuno assay (Protein G Sepharose, 125I-labelled Bet v 1) on gel filtration fractions

| Binder | binding (Bet v 1 (birch) [1]) | binding (Bet v 1 (birch) [2]) | binding (Bet v 1 (birch) [3]) |
| --- | --- | --- | --- |
| Betv1-IgG1 (antibody, not shown: a dimerising Fc or GST) heavy: EVQLQQSGAELVKPGASVKLSCTASGFNIKDTYIHWVKQRPEQGLEWVGRIDPATGNTRYDPKFQGKATITADTSSNTAYLQLSSLTSEDTAVYYCASFRPGYALDYWGQGTSVTVSS light: DIVMTQSHKFMSTSVGDRVSFTCKASQDVFTAVAWYQQKPGQSPKLLIYWASTRRTGVPDRFTGSGSGTDYTLTISSVQAEDLALYYCQQHFSTPPTFGGGTKLEIKRTVAAPSVFIFPPSDEQLKSGTASVVCLLNNFYPREAKVQWKVDNALQSGNSQESVTEQDSKDSTYSLSSTLTLSKADYEKHKVYACEVTHQGLSSPVTKSFNRGEC | binds | binds |  |
| Betv1-HG (antibody, V domains shown) VH: EVQLQQSGAELVKPGASVKLSCTASGFNIKDTYIHWVKQRPEQGLEWVGRIDPATGNTRYDPKFQGKATITADTSSNTAYLQLSSLTSEDTAVYYCASFRPGYALDYWGQGTSVTVSS VL: DIVMTQSHKFMSTSVGDRVSFTCKASQDVFTAVAWYQQKPGQSPKLLIYWASTRRTGVPDRFTGSGSGTDYTLTISSVQAEDLALYYCQQHFSTPPTFGGGTKLEIKR | binds | binds | binds |
